Test results reported in PubChem BioAssay AID434947 (Broad Institute, 2010).
Among all 2,200 compounds or so, about 15 (0.7%) were called active.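 How the source made its calls: active means fitted half-maximal concentration for loss of luminescence signal no more than a set limit of log units above the top tested concentration; inconclusive means flat fit with 30 to 70% signal loss, or invalid fit; inactive means half-maximal concentration above that set limit.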 The list shows a part of the results.

Test: inhibitors of ADP-Glo detection reagents, dose response, artefact control for GSK3beta inhibitor project, biochemical, luminescence, cell-free, homogeneous (AID 434947);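 further: kinase-free counter screen of ADP-Glo detection reagents for GSK3beta hits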
Conditions: 5 uM ADP

Row | SMILES | EC50
1 | N#CC(C#N)=Cc1cc2ccccc2nc1N1CCOCC1 | inactive: > 30 µM
2 | O=C(O)c1ccc(-c2ccc(/C=N/Nc3ccc([N+](=O)[O-])cc3)o2)cc1 | inactive: > 30 µM
3 | Cc1cccc(Nc2nc(N)c([N+](=O)[O-])c(NCc3ccccc3)n2)c1 | inactive: > 30 µM
4 | COc1ccc2c(c1)/C(=N/N1C(=O)c3ccccc3C1=O)C(=O)N2 | inactive: > 30 µM
5 | COc1ccc(-n2c(=O)c3c4c(sc3n3c(=S)[nH]nc23)CCC4)cc1 | inactive: > 30 µM
6 | CCCN(CCC)Cc1c(C(=O)N/N=C/c2c[nH]c3ccccc23)nnn1-c1nonc1N | inactive: > 30 µM
7 | CC1=C(C(=O)Nc2ccccc2F)C(c2cccs2)C2=C(CCCC2=O)N1 (centres undefined) | inactive: > 30 µM
8 | CCc1cc(C(=O)c2ccc(OC)cc2)c(NC(=O)CN2CCN(C)CC2)s1 | inactive: > 30 µM
9 | COc1ccc(Nc2nc(NCc3ccco3)nc(N)c2[N+](=O)[O-])cc1 | inactive: > 30 µM
10 | CCOC(=O)c1ccc2c(c1)n(CC)c(/C=C/N(C)c1ccccc1)[n+]2CC | inactive: > 35 µM
11 | COc1ccc2c(C)c(CC(=O)N3CCN(C(=O)C4COc5ccccc5O4)CC3)c(=O)oc2c1 (centres undefined) | inactive: > 30 µM
12 | Cc1[nH]nc2c1[C@@H](c1ccccc1[N+](=O)[O-])C(C#N)=C(N)O2 | inactive: > 30 µM
13 | Cc1csc(SCC(=O)Nc2ccc(Cl)cn2)n1 | inactive: > 30 µM
14 | O=C(CCl)Oc1ccc2occ(C(=O)c3cccs3)c2c1 | inactive: > 30 µM
15 | CC(Cc1c[nH]c2ccccc12)NC(=O)OCCCl (centres undefined) | inactive: > 30 µM
16 | C=CCN=C(NC#N)SC | inactive: > 30 µM
17 | COC(=O)c1ccccc1OCCOc1ccccc1C(=O)OC | inactive: > 30 µM
18 | CCOC(=O)c1ccc(NS(=O)(=O)c2ccc3c(c2)NC(=O)CCS3)cc1 | inactive: > 30 µM
19 | Cc1cc(C(=O)c2ccccc2)c(NC(=O)CN2CCOCC2)s1 | inactive: > 30 µM
20 | O=C(NC(Cc1ccccc1)c1ccc2c(c1)OCCCO2)c1ccccc1 (centres undefined) | inactive: > 30 µM

Row | SMILES | EC50
21 | CCn1c(-c2ccc([N+](=O)[O-])cc2)n[nH]c1=S | inactive: > 30 µM
22 | COc1cccc(C(=O)C[n+]2ccccc2/C=N/O)c1 | inactive: > 30 µM
23 | CCn1c(=O)c(C(=O)NNC(=O)c2ccccc2)c(O)c2ccccc21 | inactive: > 30 µM
24 | CCOc1ccccc1/C=N/NC(=O)c1nnn(-c2nonc2N)c1CN1CCCC1 | inactive: > 30 µM
25 | Cc1ccnc(NC(=O)c2cccc([N+](=O)[O-])c2C)c1 | inactive: > 30 µM
26 | CCCCOC(=O)C1=C(C)Nc2ncnn2C1c1cc(OC)c(OC)cc1OC (centres undefined) | inactive: > 30 µM
27 | COc1ccc(CCNc2nc(-c3ccc(O)cc3)cs2)cc1OC | inactive: > 30 µM
28 | OC(c1ccccc1)c1ccncc1 (centres undefined) | inactive: > 30 µM
29 | COc1ccc(C(=O)NC(=S)NC2CCCCC2)cc1 | inactive: > 30 µM
30 | O=C(Cn1cc[n+](CC(=O)c2ccc(Cl)cc2Cl)c1)c1ccc(Cl)cc1Cl | inactive: > 30 µM
31 | Cc1c(C(=O)OCc2ccccc2)nnn1-c1nonc1N | inactive: > 30 µM
32 | O=C(CSc1ccc2nnc(-c3ccc(F)cc3)n2n1)N1CCOCC1 | inactive: > 30 µM
33 | CC1CCc2c(sc3nn[nH]c(=O)c23)C1 (centres undefined) | inactive: > 30 µM
34 | Nc1nc(Nc2cccc(F)c2)nc(NCCO)c1[N+](=O)[O-] | inactive: > 30 µM
35 | CCN1CCN(CCCNC(=O)c2ccc3c(c2)NC(=O)/C(=C\c2cccc(C)c2)S3)CC1 | inactive: > 30 µM
36 | CCOc1cccc(-c2c(C(=O)N/N=C(\C)c3cccs3)nnn2-c2nonc2N)c1 | inactive: > 30 µM
37 | O=C(Nc1ccc(O)c2c(=O)cc(-c3ccccc3Cl)oc12)c1cccc(Cl)c1 | inactive: > 30 µM
38 | NC(=O)c1cccc2c1C(=O)N(C1CCCCC1)C2 | inactive: > 30 µM
39 | CC1(C)CC(=O)C=C(Nc2cccc(C(F)(F)F)c2)C1 | inactive: > 30 µM
40 | COc1ccc(C(=O)O/N=C(/C)c2cccs2)cc1 | active: 16.2 µM

Excerpt, entries 22–37
Row | SMILES | EC50
22 | COc1cccc(C(=O)C[n+]2ccccc2/C=N/O)c1 | inactive: > 30 µM
23 | CCn1c(=O)c(C(=O)NNC(=O)c2ccccc2)c(O)c2ccccc21 | inactive: > 30 µM
24 | CCOc1ccccc1/C=N/NC(=O)c1nnn(-c2nonc2N)c1CN1CCCC1 | inactive: > 30 µM
25 | Cc1ccnc(NC(=O)c2cccc([N+](=O)[O-])c2C)c1 | inactive: > 30 µM
26 | CCCCOC(=O)C1=C(C)Nc2ncnn2C1c1cc(OC)c(OC)cc1OC (centres undefined) | inactive: > 30 µM
27 | COc1ccc(CCNc2nc(-c3ccc(O)cc3)cs2)cc1OC | inactive: > 30 µM
28 | OC(c1ccccc1)c1ccncc1 (centres undefined) | inactive: > 30 µM
29 | COc1ccc(C(=O)NC(=S)NC2CCCCC2)cc1 | inactive: > 30 µM
30 | O=C(Cn1cc[n+](CC(=O)c2ccc(Cl)cc2Cl)c1)c1ccc(Cl)cc1Cl | inactive: > 30 µM
31 | Cc1c(C(=O)OCc2ccccc2)nnn1-c1nonc1N | inactive: > 30 µM
32 | O=C(CSc1ccc2nnc(-c3ccc(F)cc3)n2n1)N1CCOCC1 | inactive: > 30 µM
33 | CC1CCc2c(sc3nn[nH]c(=O)c23)C1 (centres undefined) | inactive: > 30 µM
34 | Nc1nc(Nc2cccc(F)c2)nc(NCCO)c1[N+](=O)[O-] | inactive: > 30 µM
35 | CCN1CCN(CCCNC(=O)c2ccc3c(c2)NC(=O)/C(=C\c2cccc(C)c2)S3)CC1 | inactive: > 30 µM
36 | CCOc1cccc(-c2c(C(=O)N/N=C(\C)c3cccs3)nnn2-c2nonc2N)c1 | inactive: > 30 µM
37 | O=C(Nc1ccc(O)c2c(=O)cc(-c3ccccc3Cl)oc12)c1cccc(Cl)c1 | inactive: > 30 µM

Next results.

Row | SMILES | EC50
41 | COc1cccc(C(=O)C(C#N)=C(SC)SC)c1 | inactive: > 30 µM
42 | CCN1CCc2c(sc(NC(=O)Cc3ccccc3)c2C(N)=O)C1 | inactive: > 30 µM
43 | Clc1ccc(CSc2nnc(-c3ccncc3)o2)cc1 | inactive: > 30 µM
44 | Cc1ccnc(NC(=O)c2ccccc2[N+](=O)[O-])c1 | inactive: > 30 µM
45 | Cc1ccc(-c2n[nH]c(=S)n2/N=C/c2ccncc2)cc1 | inactive: > 30 µM
46 | Cc1ccc(C(=O)/C=C/c2ccc3ncccc3c2)cc1 | inactive: > 30 µM
47 | CCn1c(O)c(N=NC(=O)C(O)c2ccccc2)c2ccccc21 (centres undefined) | inactive: > 30 µM
48 | COc1ccc2nc(NC(=O)C3CCCO3)sc2c1 (centres undefined) | inactive: > 30 µM
49 | C=CCOC(=O)C1=C(C)Nc2ncnn2C1c1cccs1 (centres undefined) | inactive: > 30 µM
50 | CCCC1=C(C(=O)OCC)C(c2cccs2)n2ncnc2N1 (centres undefined) | inactive: > 30 µM
51 | Cc1ccc2c(c1)/C(=N/N1C(=O)c3ccccc3C1=O)C(=O)N2 | inactive: > 30 µM
52 | COc1cc(C(=O)N2CCN(c3ccccn3)CC2)cc(OC)c1OC | inactive: > 30 µM
53 | CCOC(=O)CC(=O)CSc1ccc2nnc(-c3ccc(C)cc3)n2n1 | inactive: > 30 µM
54 | CCCN(CCC)Cc1c(C(=O)N/N=C/CCc2ccccc2)nnn1-c1nonc1N | inactive: > 30 µM
55 | Cc1ccc(CNc2nc(N)c([N+](=O)[O-])c(Nc3ccc(F)cc3)n2)cc1 | inactive: > 30 µM
56 | CCc1c(C)c2ccc(O)c(CN(C)C)c2oc1=O | inactive: > 30 µM
57 | COc1cccc2c1cc1c(=O)n(CC(=O)NCCCN3CCCCC3)nc(C)n12 | inactive: > 30 µM
58 | CCCNC(=O)c1ccc(SCC(=O)N(CC)CC)c([N+](=O)[O-])c1 | inactive: > 30 µM
59 | Nc1nonc1-n1nnc(C(=O)N/N=C/c2cccc(Cl)c2)c1CN1CCCCCC1 | inactive: > 30 µM
